# Measured data: PubChem BioAssay AID1259308 (NCATS, 2017)
# Test: 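Candidate targets for better recombinant protein yield in mammalian cells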 (primary screen)
# System: human HEK293 embryonic kidney cells stably expressing firefly luciferase (HEK-CMV-Luc2-Hygro)
# Reagent: single siRNA against human genes, 0.8 pmol siRNA per well
# Time to read-out: 72 h
# Detection: 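Luciferase light (ONE-Glo) measured on one replicate plate set and viability (CellTiter-Glo) on the other, scaled to a negative control siRNA, with robust z-scores and luciferase per cell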
# Direction: total luciferase, z-score and total luciferase, % of control: higher = more reporter protein produced; luciferase per cell, z-score: higher = more reporter output per viable cell; viable cells, % of control: higher = more viable cells
# Hit rule: 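An siRNA counts as active if its total luciferase robust z-score exceeds 3; genes with two or more such siRNAs out of three were retested with fresh siRNAs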
# Calls: active = raised luciferase; inactive = no rise
# Shown is an unselected part of about 59,000 reagents. In the full data, about 1,510 (2.6%) were called active. 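Calls use total luciferase alone and ignore viability, so some active siRNAs may act by altering cell number.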 Reagents against one gene are numbered here.
Gene,reagent no.,"total luciferase, z-score","total luciferase, % of control","luciferase per cell, z-score","viable cells, % of control",activity call
NETO1,1,-1.35,55.1,-0.781,75.6,inactive
NETO1,2,1.2,106,0.623,100,inactive
NETO1,3,0.951,101,0.445,100,inactive
PRKAG2,1,-1.43,53.4,-1.49,88.4,inactive
PRKAG2,2,-1.19,58.3,-0.267,69.9,inactive
PRKAG2,3,-0.457,72.8,-0.859,102,inactive
DOCK7,1,-0.636,69.2,-0.856,96.9,inactive
DOCK7,2,-1.21,57.8,-0.406,71.9,inactive
DOCK7,3,-0.193,78.1,-0.251,93.2,inactive
ECHDC1,1,1.03,102,0.193,109,inactive
ECHDC1,2,0.874,99.3,-0.0184,111,inactive
ECHDC1,3,0.576,93.3,0.39,94.1,inactive
UBAP1,1,1.13,104,0.647,98.3,inactive
UBAP1,2,1.27,107,1.3,85,inactive
UBAP1,3,-0.145,79,0.379,79.9,inactive
CENPBD2P,1,0.502,91.9,2.54,52.6,inactive
CENPBD2P,2,2.16,125,2.41,74,inactive
CENPBD2P,3,1.97,121,2.58,68.6,inactive
SV2A,1,-0.17,78.5,-0.49,99.8,inactive
SV2A,2,-0.451,72.9,-0.733,98.8,inactive
SV2A,3,0.315,88.1,-0.573,115,inactive
CWH43,1,0.553,92.9,0.0987,101,inactive
CWH43,2,-0.0184,81.5,-0.138,94.5,inactive
CWH43,3,-0.214,77.6,-0.448,97.6,inactive
FBXO31,1,0.0424,82.7,0.639,78.1,inactive
FBXO31,2,-0.655,68.9,-1.25,107,inactive
FBXO31,3,-1.84,45.3,-1.8,81.2,inactive

Laid out differently: 4 of the entries above
{"Gene":"NETO1","reagent no.":3,"total luciferase, z-score":0.951,"total luciferase, % of control":101,"luciferase per cell, z-score":0.445,"viable cells, % of control":100,"activity call":"inactive"}
{"Gene":"PRKAG2","reagent no.":1,"total luciferase, z-score":-1.43,"total luciferase, % of control":53.4,"luciferase per cell, z-score":-1.49,"viable cells, % of control":88.4,"activity call":"inactive"}
{"Gene":"PRKAG2","reagent no.":2,"total luciferase, z-score":-1.19,"total luciferase, % of control":58.3,"luciferase per cell, z-score":-0.267,"viable cells, % of control":69.9,"activity call":"inactive"}
{"Gene":"PRKAG2","reagent no.":3,"total luciferase, z-score":-0.457,"total luciferase, % of control":72.8,"luciferase per cell, z-score":-0.859,"viable cells, % of control":102,"activity call":"inactive"}

Additional results follow.
Gene,reagent no.,"total luciferase, z-score","total luciferase, % of control","luciferase per cell, z-score","viable cells, % of control",activity call
ATF1,1,0.0764,83.4,-0.428,104,inactive
ATF1,2,-0.381,74.3,-0.936,106,inactive
ATF1,3,1.31,108,0.161,116,inactive
EDNRB,1,1.71,116,1.63,84.2,inactive
EDNRB,2,-0.97,62.6,-1.03,91.8,inactive
EDNRB,3,1.05,103,0.657,96.5,inactive
HNRNPH1,1,0.944,101,0.867,89.5,inactive
HNRNPH1,2,3.02,142,3.99,55.5,active
HNRNPH1,3,0.862,99,1.16,81.6,inactive
EGFL6,1,1.18,105,0.598,101,inactive
EGFL6,2,0.438,90.6,0.666,85,inactive
EGFL6,3,-0.344,75,-1,109,inactive
STRAP,1,0.464,91.1,-0.0853,104,inactive
STRAP,2,0.639,94.6,-0.038,107,inactive
STRAP,3,0.171,85.3,-0.523,109,inactive
ST7L,1,-0.683,68.3,-0.742,92.8,inactive
ST7L,2,0.673,95.3,0.7,88.5,inactive
ST7L,3,-1.19,58.3,-1.58,98.8,inactive
GJA10,1,-0.881,64.4,0.161,68.9,inactive
GJA10,2,-0.234,77.2,-0.673,103,inactive
GJA10,3,-0.874,64.5,-0.288,77.7,inactive
MAPK6,1,0.908,99.9,1.48,75.6,inactive
MAPK6,2,1.72,116,1.07,97.9,inactive
MAPK6,3,0.751,96.8,0.817,87.2,inactive
BCL10,1,1.8,118,1.72,83.5,inactive
BCL10,2,-0.846,65.1,-0.788,89.5,inactive
BCL10,3,-0.351,74.9,-0.936,107,inactive
NDUFB4P12,1,-0.723,67.5,-0.343,82.6,inactive
NDUFB4P12,2,-0.873,64.5,-1.22,99.5,inactive
NDUFB4P12,3,1.46,111,1.27,88.6,inactive
